In paper PMC3210800:
These are yes or no findings as the source states them, for the method shown. Some binding calls cover weakened binding; strength is not graded here.

Chains of the proteins cited; added tags and fusions are not shown.
UniProt P9WNK5: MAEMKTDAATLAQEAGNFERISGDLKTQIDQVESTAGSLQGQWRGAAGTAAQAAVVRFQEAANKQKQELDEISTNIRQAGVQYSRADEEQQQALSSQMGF

Molecular target: CFP10 in pBTnn (bacterial two-hybrid bait) (M. tuberculosis (H37Rv)) (UniProt P9WNK5)
Test: two-hybrid

Row | Molecule | binding
1 | ESAT6 in pTRGnn (bacterial two-hybrid target) (from UniProt P9WNK7 1-95) | binds
2 | Rv3871 in pTRGnn (bacterial two-hybrid target) (protein, UniProt P9WNB1 1-591) MTAEPEVRTLREVVLDQLGTAESRAYKMWLPPLTNPVPLNELIARDRRQPLRFALGIMDEPRRHLQDVWGVDVSGAGGNIGIGGAPQTGKSTLLQTMVMSAAATHSPRNVQFYCIDLGGGGLIYLENLPHVGGVANRSEPDKVNRVVAEMQAVMRQRETTFKEHRVGSIGMYRQLRDDPSQPVASDPYGDVFLIIDGWPGFVGEFPDLEGQVQDLAAQGLAFGVHVIISTPRWTELKSRVRDYLGTKIEFRLGDVNETQIDRITREIPANRPGRAVSMEKHHLMIGVPRFDGVHSADNLVEAITAGVTQIASQHTEQAPPVRVLPERIHLHELDPNPPGPESDYRTRWEIPIGLRETDLTPAHCHMHTNPHLLIFGAAKSGKTTIAHAIARAICARNSPQQVRFMLADYRSGLLDAVPDTHLLGAGAINRNSASLDEAVQALAVNLKKRLPPTDLTTAQLRSRSWWSGFDVVLLVDDWHMIVGAAGGMPPMAPLAPLLPAAADIGLHIIVTCQMSQAYKATMDKFVGAAFGSGAPTMFLSGEKQEFPSSEFKVKRRPPGQAFLVSPDGKEVIQAPYIEPPEEVFAAPPSAG | binds
